The values that follow come from publication PMC7819943, “Rice protein-binding microarrays: a tool to detect cis-acting elements near promoter regions in rice”.

By UniProt entry, the sequences of proteins in these tests, tags left out.
UniProt Q0JBA9, entry or part of it: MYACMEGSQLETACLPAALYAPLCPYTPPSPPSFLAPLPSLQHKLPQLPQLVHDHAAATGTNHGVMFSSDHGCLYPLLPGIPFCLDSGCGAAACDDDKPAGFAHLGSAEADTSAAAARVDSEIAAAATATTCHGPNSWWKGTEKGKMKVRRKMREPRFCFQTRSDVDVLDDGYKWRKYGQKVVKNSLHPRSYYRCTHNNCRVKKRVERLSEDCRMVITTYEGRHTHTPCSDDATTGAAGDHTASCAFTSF

The list shows a part of the results.

The assay deals with OsWRKY34 (Oryza sativa, UniProt Q0JBA9 1-250). Kind of assay: protein-binding microarray (RPBM); PBS, 2% BSA, 51.3 ng/ul salmon testes DNA, 50 uM zinc acetate, 200 nM TF, 25 C, 1 h; high values mean tight binding. Particulars: protein: recombinant; tags: N-terminal polyhistidine and DsRed monomer fusion (pET32a); label: CyDye5-dUTP incorporated in the synthesized complementary strand; 3' TTTTT single-stranded linker to array surface; dsDNA, one strand shown. Summed up: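 The binding signal for each feature is its fluorescence intensity in arbitrary units. An Axon 4000B scanner was used to read a custom Agilent array that had been made double-stranded with Cy5-dUTP primer extension, blocked with 2% BSA, incubated at 25 °C for 1 h with 200 nM protein in PBS, 2% BSA, salmon testes DNA and 50 µM zinc acetate, and washed. The protein was an N-terminal polyhistidine–DsRed transcription factor fusion from E. coli BL21-CodonPlus, purified on Ni–NTA.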
For the sequence “GATCCCGCAAACCTCGCGCCTTTTCCGCGATTCAGCCACGCGGAGTCACCTAGTGCAG”, the binding signal was 9640 fluorescence intensity (a.u.). Under “AGTAGTTTTTTAATATCACCTTAATTTACTTCATACACATCGGAGTCACCTAGTGCAG” stands 8470 fluorescence intensity (a.u.); under “TGCCTGCATCCTTTCTGCTCTGTCCCTAAAAGTTTCACCTCGGAGTCACCTAGTGCAG”, 8330 fluorescence intensity (a.u.). Consider “GACTTTTTAACACATGTTTGACCGTTCGTCTTATTCAAAACGGAGTCACCTAGTGCAG”, for which the binding signal is 10900 fluorescence intensity (a.u.). Regarding “ACCACCCGCCACGTCTCGCCCACGCGCGCGCGCGCACCGCCGGAGTCACCTAGTGCAG”, the binding signal was 12300 fluorescence intensity (a.u.). “TGCCCGTAGCTTATATATGATTCATCCATTATCTAGAAAACGGAGTCACCTAGTGCAG”: the binding signal is 8390 fluorescence intensity (a.u.). Consider “GGCCGCGCTAGCCCATCCCCATGCCGAACCAGCTAGCCCACGGAGTCACCTAGTGCAG”, for which the binding signal is 8050 fluorescence intensity (a.u.). As to “CTATCTTCCGTTCCACCCGCTCCCGTTGAGCTCAATTATCCGGAGTCACCTAGTGCAG”, the binding signal was 10500 fluorescence intensity (a.u.). On to “CAAATAACCGGTCAGCCCATCACTCCGTCACAGTTCACAGCGGAGTCACCTAGTGCAG”, for which the binding signal was 8070 fluorescence intensity (a.u.). Take “AAATCCGGCGCCAAATTTACCCGCGCCTTCACTCGTGTGACGGAGTCACCTAGTGCAG”: the binding signal was 8660 fluorescence intensity (a.u.). In the case of “AACAAGGCATCCGCACCCGCATTAAAAACGCTATTTCTTTCGGAGTCACCTAGTGCAG”, the binding signal is 9670 fluorescence intensity (a.u.).

As for “GAAGGTTATAACCTCTGCACTCACACCATATGCATGTCCTCGGAGTCACCTAGTGCAG”, the binding signal is 9110 fluorescence intensity (a.u.). For the sequence “ACATGTAGCACGAGCCGTTCCTTGTGCCACCCAGACGAATCGGAGTCACCTAGTGCAG”, the binding signal was 8090 fluorescence intensity (a.u.). As for “GGGGAAACTCTTTTATTGTCTTAAGGGATGTCCTCTCAATCGGAGTCACCTAGTGCAG”, the binding signal was 11200 fluorescence intensity (a.u.). Under “TCGCCCACCGCCTGAGCCGATCCATCTCGCGCGATCCCGCCGGAGTCACCTAGTGCAG” stands 9260 fluorescence intensity (a.u.); under “TAGACTTTTTCTCACATGTTTGACCATTCGTCTTATTCAACGGAGTCACCTAGTGCAG”, 11700 fluorescence intensity (a.u.). In the case of “CTTTGTCACCATTTGCCAATAAATGTTGTTACACTTGCCACGGAGTCACCTAGTGCAG” it was 8070 fluorescence intensity (a.u.); in that of “TTTCCGACCTTGCAGTATTGATAATCATTCATTTCACCTTCGGAGTCACCTAGTGCAG”, 8540 fluorescence intensity (a.u.). “TTATACTCACTTGTTTTTCACACGCGCATATTTTTTAAATCGGAGTCACCTAGTGCAG”: the binding signal is 8030 fluorescence intensity (a.u.).

For the sequence “ACCGAGGTTGACCAGGCCCCACATGTAAGCGAGAGGAGCTCGGAGTCACCTAGTGCAG”, the binding signal was 8980 fluorescence intensity (a.u.).

Regarding “TTTCTGTTCGCACACCAGCATGCATGCATGCGTTGCACTCCGGAGTCACCTAGTGCAG”, the binding signal was 9150 fluorescence intensity (a.u.). Under “TGTATTTTTCATGTAGTAAACCACATCTCCTACAGTTCTACGGAGTCACCTAGTGCAG” stands 8380 fluorescence intensity (a.u.); under “GACCTCTCCATCTCGCTCTCTGCTCGATTCCGAGCGGCTCCGGAGTCACCTAGTGCAG”, 8220 fluorescence intensity (a.u.). In the case of “AGAGCTTGAGGTGGTTGGATTTTTCTCGTACTTTTCATGTCGGAGTCACCTAGTGCAG” it was 11700 fluorescence intensity (a.u.); in that of “TGACCAACATCAAGTAATATAGCCATGATATATTTTCTACCGGAGTCACCTAGTGCAG”, 8130 fluorescence intensity (a.u.); in that of “ATAACTTGCACATCCTTTTTGCTCTCTTATGATTTGTTATCGGAGTCACCTAGTGCAG”, 9640 fluorescence intensity (a.u.). On to “CCATTAACTTTTTCCCACCTACCTTCACTATTCATCCAATCGGAGTCACCTAGTGCAG”, for which the binding signal was 10300 fluorescence intensity (a.u.). For the sequence “TTGCTTCATCGATTGGGAGGTTTCTTGCTGTTCTTGGGTTCGGAGTCACCTAGTGCAG”, the binding signal was 10100 fluorescence intensity (a.u.). Under “CTAGTAGTGCACACAAGCGGCAGCAGGAGGGGAGGGTGGTCGGAGTCACCTAGTGCAG” stands 9190 fluorescence intensity (a.u.); under “TGGATGTATGTGTTTTTTTTATATTTATGTATGTTTATTCCGGAGTCACCTAGTGCAG”, 9360 fluorescence intensity (a.u.). As for “TGAAATTTTTACTGTCATGCTTCCTTGTCCCATTACTACACGGAGTCACCTAGTGCAG”, the binding signal was 8120 fluorescence intensity (a.u.).

For “ATCGTCTTCCTCGTGAGCGTCCGCGCCCACCCACCTAACCCGGAGTCACCTAGTGCAG”, the binding signal is 9680 fluorescence intensity (a.u.).

With “CGGTGTACTTTTTCCTTTCCGATATAAGCTTATTCCTATGCGGAGTCACCTAGTGCAG”, the binding signal was 9380 fluorescence intensity (a.u.). “GGATGTGGTGTGAGGCGGTGAGGTGGAGGGAACACGGGGACGGAGTCACCTAGTGCAG”: the binding signal is 9340 fluorescence intensity (a.u.).

With “TCCGCCCATATCGATATATCTTTATTTCGAGCTACTTTTGCGGAGTCACCTAGTGCAG”, the binding signal was 8370 fluorescence intensity (a.u.). Under “ATCATATGATGCTTTGTCGGTGGTGGTGGTTCTTTCAATTCGGAGTCACCTAGTGCAG” stands 14300 fluorescence intensity (a.u.); under “GATTCTTCCAATTCCCTGAATCTTGCATGCTTGTAGTTTTCGGAGTCACCTAGTGCAG”, 11700 fluorescence intensity (a.u.); under “TACGTTGGGTGTTATTTGATAGTATTTCCTTGTGTTCTTGCGGAGTCACCTAGTGCAG”, 8540 fluorescence intensity (a.u.). With “AGCCAGTAGATTAGAGGATCAGGTTCCATTCAGAGTGTATCGGAGTCACCTAGTGCAG”, the binding signal is 8800 fluorescence intensity (a.u.). Take “GTTGCCAATATAAAAGATGCAAATGTGTTGTTGTCTGGTTCGGAGTCACCTAGTGCAG”: the binding signal was 9040 fluorescence intensity (a.u.). In the case of “TGTTTGTGATTCAGATACTGCTCTAGTGTGGCTTGCTGCCCGGAGTCACCTAGTGCAG” it was 8240 fluorescence intensity (a.u.); in that of “AACGATTCTTCCTCGCCGACGCCGCCACCCACCCACAACCCGGAGTCACCTAGTGCAG”, 8060 fluorescence intensity (a.u.).
